The source of these data is the supplement of paper PMC11732987, “Enantioselective OTUD7B fragment discovery through chemoproteomics screening and high-throughput optimisation” (Communications Chemistry, 2025).

By UniProt entry, the sequences of proteins in these tests, tags left out. Where a name states a change or a piece, a line headed by the entry shows the natural chain unless it says otherwise. Residues count along the entry.
UniProt P57768: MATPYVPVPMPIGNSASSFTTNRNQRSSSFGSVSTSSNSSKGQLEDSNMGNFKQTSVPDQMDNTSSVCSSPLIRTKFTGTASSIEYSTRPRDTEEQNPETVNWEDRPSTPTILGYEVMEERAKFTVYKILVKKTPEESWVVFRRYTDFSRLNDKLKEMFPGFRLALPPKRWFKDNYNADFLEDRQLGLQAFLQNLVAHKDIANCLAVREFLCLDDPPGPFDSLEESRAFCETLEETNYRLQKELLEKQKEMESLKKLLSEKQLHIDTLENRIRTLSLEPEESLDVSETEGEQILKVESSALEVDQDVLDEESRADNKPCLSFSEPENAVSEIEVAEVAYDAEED
UniProt Q9H4L7: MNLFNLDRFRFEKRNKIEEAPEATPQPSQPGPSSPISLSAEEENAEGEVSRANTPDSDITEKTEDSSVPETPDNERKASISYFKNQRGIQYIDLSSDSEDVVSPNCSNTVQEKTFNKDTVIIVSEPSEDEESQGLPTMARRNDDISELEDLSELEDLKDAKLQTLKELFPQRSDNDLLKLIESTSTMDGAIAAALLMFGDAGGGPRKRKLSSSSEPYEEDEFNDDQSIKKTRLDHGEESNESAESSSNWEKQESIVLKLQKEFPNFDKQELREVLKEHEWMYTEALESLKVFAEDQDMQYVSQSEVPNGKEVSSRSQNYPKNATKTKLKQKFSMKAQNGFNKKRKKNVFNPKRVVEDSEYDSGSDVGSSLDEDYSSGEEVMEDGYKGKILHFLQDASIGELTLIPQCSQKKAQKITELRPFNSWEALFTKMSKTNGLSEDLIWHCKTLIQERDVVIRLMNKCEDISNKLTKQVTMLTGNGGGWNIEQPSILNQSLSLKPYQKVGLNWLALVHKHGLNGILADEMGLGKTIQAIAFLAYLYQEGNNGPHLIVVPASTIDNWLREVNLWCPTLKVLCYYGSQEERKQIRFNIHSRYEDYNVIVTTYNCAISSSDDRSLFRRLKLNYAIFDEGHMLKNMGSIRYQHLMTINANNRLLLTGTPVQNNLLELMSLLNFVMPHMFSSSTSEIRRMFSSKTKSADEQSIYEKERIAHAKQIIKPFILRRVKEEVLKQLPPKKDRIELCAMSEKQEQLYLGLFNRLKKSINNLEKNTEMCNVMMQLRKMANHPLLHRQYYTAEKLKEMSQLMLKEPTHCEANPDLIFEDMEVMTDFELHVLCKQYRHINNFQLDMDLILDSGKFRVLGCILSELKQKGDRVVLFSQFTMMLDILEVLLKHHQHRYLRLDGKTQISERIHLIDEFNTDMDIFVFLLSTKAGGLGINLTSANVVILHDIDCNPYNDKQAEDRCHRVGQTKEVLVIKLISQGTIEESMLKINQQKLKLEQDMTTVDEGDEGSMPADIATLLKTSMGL
UniProt Q13485: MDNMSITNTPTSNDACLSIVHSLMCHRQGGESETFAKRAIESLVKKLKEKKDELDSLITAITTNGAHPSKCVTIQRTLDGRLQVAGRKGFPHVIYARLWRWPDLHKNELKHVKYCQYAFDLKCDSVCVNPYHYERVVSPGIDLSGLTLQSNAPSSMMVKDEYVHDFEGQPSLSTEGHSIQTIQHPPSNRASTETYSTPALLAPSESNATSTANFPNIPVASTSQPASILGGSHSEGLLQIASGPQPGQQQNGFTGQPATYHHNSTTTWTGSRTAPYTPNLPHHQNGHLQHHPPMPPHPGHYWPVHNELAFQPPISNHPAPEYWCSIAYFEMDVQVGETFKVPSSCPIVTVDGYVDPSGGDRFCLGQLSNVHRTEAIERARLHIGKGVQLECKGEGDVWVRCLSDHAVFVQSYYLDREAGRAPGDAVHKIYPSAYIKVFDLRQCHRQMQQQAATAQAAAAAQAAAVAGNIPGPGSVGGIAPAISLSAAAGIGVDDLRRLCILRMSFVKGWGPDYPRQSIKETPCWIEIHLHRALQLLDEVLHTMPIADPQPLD
UniProt Q6IEG0: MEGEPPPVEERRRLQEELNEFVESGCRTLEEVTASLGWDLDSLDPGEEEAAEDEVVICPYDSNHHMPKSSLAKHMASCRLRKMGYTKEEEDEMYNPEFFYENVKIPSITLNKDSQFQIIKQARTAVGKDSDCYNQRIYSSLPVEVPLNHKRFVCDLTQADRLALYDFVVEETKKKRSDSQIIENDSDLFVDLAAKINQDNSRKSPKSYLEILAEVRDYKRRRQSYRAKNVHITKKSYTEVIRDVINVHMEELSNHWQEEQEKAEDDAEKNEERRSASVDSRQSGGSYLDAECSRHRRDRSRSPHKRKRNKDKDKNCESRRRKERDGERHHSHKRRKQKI
UniProt Q13424: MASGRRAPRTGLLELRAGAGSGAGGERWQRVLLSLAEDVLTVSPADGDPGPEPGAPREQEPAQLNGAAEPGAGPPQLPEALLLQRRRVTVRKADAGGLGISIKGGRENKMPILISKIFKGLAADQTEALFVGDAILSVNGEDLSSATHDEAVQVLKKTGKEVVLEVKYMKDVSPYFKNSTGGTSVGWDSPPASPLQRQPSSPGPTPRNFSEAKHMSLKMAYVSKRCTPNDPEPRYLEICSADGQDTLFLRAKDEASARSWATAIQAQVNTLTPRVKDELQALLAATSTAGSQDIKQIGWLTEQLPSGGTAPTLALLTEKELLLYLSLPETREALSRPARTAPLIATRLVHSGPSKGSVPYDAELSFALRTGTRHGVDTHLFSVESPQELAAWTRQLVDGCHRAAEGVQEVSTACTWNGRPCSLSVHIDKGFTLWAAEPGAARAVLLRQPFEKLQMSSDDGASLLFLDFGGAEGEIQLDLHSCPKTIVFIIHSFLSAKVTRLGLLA
UniProt Q9ULF5: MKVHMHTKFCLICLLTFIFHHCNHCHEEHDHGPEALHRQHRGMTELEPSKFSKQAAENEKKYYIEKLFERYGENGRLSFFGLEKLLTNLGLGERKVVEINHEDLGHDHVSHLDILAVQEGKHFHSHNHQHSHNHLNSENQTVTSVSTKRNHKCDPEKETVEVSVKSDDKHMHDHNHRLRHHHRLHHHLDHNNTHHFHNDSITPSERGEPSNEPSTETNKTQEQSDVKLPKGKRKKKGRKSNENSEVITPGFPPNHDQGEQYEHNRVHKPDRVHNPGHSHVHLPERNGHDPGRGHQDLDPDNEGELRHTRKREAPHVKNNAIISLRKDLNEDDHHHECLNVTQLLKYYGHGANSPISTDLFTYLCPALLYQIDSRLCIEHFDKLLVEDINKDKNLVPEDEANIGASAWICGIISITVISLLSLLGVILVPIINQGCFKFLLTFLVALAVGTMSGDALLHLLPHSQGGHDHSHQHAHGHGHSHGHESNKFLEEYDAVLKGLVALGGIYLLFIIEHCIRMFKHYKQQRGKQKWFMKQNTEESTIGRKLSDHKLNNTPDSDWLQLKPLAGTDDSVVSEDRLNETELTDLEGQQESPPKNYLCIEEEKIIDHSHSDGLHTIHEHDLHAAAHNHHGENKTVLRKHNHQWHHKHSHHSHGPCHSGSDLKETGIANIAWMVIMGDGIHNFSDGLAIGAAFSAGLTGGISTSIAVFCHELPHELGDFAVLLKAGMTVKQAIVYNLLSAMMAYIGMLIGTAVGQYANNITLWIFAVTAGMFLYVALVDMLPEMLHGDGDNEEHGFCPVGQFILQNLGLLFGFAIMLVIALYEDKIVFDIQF
UniProt Q9HC21: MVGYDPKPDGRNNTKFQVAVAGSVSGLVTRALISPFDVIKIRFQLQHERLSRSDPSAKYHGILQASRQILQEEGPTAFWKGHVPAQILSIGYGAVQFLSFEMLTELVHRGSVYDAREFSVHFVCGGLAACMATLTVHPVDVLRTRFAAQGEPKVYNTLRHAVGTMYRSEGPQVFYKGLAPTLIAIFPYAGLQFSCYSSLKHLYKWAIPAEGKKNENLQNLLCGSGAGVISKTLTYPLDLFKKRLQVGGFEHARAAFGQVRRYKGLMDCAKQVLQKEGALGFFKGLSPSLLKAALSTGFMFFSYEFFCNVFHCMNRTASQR
UniProt P62318, 9-29: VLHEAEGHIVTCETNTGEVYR
UniProt Q96CW6: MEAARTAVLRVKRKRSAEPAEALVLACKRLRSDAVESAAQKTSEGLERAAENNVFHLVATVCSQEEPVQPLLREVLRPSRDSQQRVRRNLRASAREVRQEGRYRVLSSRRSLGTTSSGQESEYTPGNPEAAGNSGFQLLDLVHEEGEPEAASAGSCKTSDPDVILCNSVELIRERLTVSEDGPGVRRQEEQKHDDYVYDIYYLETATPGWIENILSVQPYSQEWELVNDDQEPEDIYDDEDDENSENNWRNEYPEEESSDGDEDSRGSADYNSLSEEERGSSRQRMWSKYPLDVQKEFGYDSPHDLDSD
UniProt Q96BD8: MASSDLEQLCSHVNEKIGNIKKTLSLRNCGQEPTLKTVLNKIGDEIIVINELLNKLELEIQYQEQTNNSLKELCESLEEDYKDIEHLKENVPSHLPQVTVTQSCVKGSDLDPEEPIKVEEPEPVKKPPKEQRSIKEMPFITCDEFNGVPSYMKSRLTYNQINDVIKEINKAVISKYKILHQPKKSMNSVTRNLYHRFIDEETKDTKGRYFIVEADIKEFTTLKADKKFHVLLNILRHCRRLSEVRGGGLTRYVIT
UniProt P12236: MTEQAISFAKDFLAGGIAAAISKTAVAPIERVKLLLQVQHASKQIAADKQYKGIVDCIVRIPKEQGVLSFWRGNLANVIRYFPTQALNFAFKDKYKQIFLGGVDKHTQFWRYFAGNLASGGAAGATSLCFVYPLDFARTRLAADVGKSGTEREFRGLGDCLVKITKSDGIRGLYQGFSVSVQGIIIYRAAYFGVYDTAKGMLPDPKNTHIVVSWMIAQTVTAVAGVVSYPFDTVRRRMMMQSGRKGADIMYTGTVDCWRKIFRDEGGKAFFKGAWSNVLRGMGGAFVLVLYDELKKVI
UniProt Q9Y6M7: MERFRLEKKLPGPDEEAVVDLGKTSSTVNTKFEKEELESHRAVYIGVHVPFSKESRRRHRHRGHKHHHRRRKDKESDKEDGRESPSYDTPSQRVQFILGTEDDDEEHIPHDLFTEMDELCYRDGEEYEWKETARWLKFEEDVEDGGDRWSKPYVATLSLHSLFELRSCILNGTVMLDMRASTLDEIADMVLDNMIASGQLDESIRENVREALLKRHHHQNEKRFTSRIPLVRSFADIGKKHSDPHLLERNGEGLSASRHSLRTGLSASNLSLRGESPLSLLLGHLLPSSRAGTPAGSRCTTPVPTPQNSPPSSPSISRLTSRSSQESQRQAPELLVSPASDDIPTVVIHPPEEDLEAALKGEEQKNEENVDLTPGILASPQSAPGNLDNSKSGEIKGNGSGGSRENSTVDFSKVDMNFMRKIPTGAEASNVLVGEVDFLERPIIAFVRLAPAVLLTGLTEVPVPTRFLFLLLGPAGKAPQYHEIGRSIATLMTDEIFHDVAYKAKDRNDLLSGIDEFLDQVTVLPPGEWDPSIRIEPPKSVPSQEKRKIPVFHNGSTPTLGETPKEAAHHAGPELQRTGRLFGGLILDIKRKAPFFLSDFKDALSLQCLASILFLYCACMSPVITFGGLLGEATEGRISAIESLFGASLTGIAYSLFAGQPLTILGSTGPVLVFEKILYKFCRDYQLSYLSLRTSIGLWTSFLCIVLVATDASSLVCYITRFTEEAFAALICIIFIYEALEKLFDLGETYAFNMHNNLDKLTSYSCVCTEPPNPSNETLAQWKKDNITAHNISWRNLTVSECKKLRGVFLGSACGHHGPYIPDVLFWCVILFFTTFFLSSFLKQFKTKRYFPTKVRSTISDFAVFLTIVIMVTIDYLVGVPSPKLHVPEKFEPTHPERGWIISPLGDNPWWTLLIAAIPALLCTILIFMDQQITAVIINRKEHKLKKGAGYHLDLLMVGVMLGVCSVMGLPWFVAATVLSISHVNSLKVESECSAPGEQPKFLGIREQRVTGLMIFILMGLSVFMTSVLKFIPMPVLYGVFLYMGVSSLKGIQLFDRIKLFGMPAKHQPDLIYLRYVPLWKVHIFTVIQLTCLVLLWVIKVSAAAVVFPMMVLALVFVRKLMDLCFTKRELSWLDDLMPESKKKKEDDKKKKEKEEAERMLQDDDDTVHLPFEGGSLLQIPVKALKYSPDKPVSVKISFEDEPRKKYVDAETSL
UniProt P43007: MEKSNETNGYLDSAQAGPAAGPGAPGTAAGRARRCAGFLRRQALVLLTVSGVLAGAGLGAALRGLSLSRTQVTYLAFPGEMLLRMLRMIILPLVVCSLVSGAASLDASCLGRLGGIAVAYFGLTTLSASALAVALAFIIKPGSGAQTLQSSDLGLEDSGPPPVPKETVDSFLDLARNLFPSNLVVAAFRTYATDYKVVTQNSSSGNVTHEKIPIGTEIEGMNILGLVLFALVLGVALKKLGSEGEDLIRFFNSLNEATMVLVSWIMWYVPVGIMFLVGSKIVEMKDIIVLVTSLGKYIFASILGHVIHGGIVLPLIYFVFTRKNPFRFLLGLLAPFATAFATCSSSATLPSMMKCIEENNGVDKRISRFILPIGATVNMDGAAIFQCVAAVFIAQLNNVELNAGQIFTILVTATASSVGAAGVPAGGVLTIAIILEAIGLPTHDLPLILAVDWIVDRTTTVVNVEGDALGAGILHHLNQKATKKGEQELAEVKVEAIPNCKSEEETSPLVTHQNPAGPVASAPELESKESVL

The other results are listed elsewhere or left out. The data scatter; read single values as rough.

Compound in test [1]: ClCC(=O)N[C@@H]1CCCc2ccccc12
In words: log2 mean competition ratio of IA-DTB cysteine labelling (DMSO/compound) (log2 ratio); higher = stronger cysteine engagement by compound. As to conditions: treatment time: 4 h, cell line lysate: HEK293T. The method, then:
(§1)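 IA-DTB competitive cysteine chemoproteomics in HEK293T RIPA lysate. Lysates were treated with compound 29 or 30 at 50 or 200 µM for 4 h, then IA-DTB (500 µM, 1 h), trypsin-digested, NeutrAvidin-enriched and analysed by diaPASEF. Competition ratio = intensity DMSO / intensity compound (n=4 treated, n=64 DMSO); binding: mean log2 CR ≥ 1 and p ≤ 0.05 plus QC filters. Target is the cysteine site.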

Compound in test [2]: ClCC(=O)N[C@H]1CCCc2ccccc12
The test is described as above. To be noted: treatment time: 4 h, cell line lysate: HEK293T. The method, then: as §1

Take SNX16 C230 (UniProt P57768): the “log2 mean competition ratio” value in test [1] (50 µM) was -0.0371; in test [1] (200 µM) it was -0.142; in test [2] (50 µM), 0.0502; in test [2] (200 µM), 0.0873.

As to SMARCAD1 C445 (UniProt Q9H4L7), the “log2 mean competition ratio” value in test [1] (50 µM) is -0.199; in test [1] (200 µM), 0.258; in test [2] (50 µM), -0.359; in test [2] (200 µM), 0.0301.

Take SMAD4 C391 (UniProt Q13485): the “log2 mean competition ratio” value in test [1] (50 µM) was -0.286; in test [1] (200 µM), -0.206; in test [2] (200 µM), -0.0701.

As for SNRNP48 C292 (UniProt Q6IEG0), the “log2 mean competition ratio” value is -0.106 in test [1] (50 µM), 0.251 in test [1] (200 µM), -0.0778 in test [2] (50 µM) and 0.429 in test [2] (200 µM).

On to SNTA1 C400 (UniProt Q13424), for which the “log2 mean competition ratio” value worked out at 0.0872 in test [1] (50 µM), 0.142 in test [1] (200 µM), 0.141 in test [2] (50 µM) and 0.375 in test [2] (200 µM).

SLC39A10 C598 (UniProt Q9ULF5): the “log2 mean competition ratio” value is -0.105 in test [1] (50 µM), -0.359 in test [1] (200 µM), -0.372 in test [2] (50 µM) and -0.381 in test [2] (200 µM).

Regarding SLC25A19 C222 (UniProt Q9HC21), the “log2 mean competition ratio” value in test [1] (50 µM) is -0.196; in test [1] (200 µM), -0.0267; in test [2] (50 µM) it was -0.0161; in test [2] (200 µM), 0.09.

SNX7 C325: the “log2 mean competition ratio” value in test [1] (50 µM) was -0.0662; in test [1] (200 µM), 0.125; in test [2] (50 µM) it was -0.241; in test [2] (200 µM), 0.0489.

For SMCHD1 C897 (UniProt A6NHR9), the “log2 mean competition ratio” value was -0.0755 in test [1] (50 µM), -0.00318 in test [1] (200 µM), -0.177 in test [2] (50 µM) and -0.0214 in test [2] (200 µM).

Regarding SMN2 C60, the “log2 mean competition ratio” value is 0.121 in test [1] (50 µM), -0.121 in test [1] (200 µM), 0.159 in test [2] (50 µM) and -0.0335 in test [2] (200 µM).

For the target SNRPD3 C20 (UniProt P62318), the “log2 mean competition ratio” value in test [1] (50 µM) was -0.132; in test [1] (200 µM), 0.00677; in test [2] (50 µM), 0.329; in test [2] (200 µM), -0.0767.

Take SLC7A6OS C166 (UniProt Q96CW6): the “log2 mean competition ratio” value was -0.152 in test [1] (50 µM), 0.152 in test [1] (200 µM), -0.104 in test [2] (50 µM) and 0.237 in test [2] (200 µM).

For the target SKA1 C142 (UniProt Q96BD8), the “log2 mean competition ratio” value was found to be 0.228 in test [1] (50 µM), 0.0474 in test [1] (200 µM), 0.199 in test [2] (50 µM) and 0.0902 in test [2] (200 µM).

SLC25A6 C57 (UniProt P12236): the “log2 mean competition ratio” value in test [1] (50 µM) is 0.364; in test [1] (200 µM) it was -0.103; in test [2] (50 µM) it was 0.142; in test [2] (200 µM), 0.0535.

On to SLC4A7 C993 (UniProt Q9Y6M7), for which the “log2 mean competition ratio” value in test [1] (50 µM) was -0.111; in test [1] (200 µM) it was -0.31; in test [2] (50 µM), -0.519; in test [2] (200 µM), -0.602.

Turning to SLC1A4 C500 (UniProt P43007), the “log2 mean competition ratio” value in test [1] (50 µM) was -0.2; in test [1] (200 µM), -0.396; in test [2] (50 µM), -0.00884; in test [2] (200 µM) it was -0.21.
